Values joined by “and” are separate entries in the source; they are usually repeats but may differ in a detail not shown here. Equal values may be shown once. At least one read-out could not be matched to a standard name with certainty.
Test system: H1 human embryonic stem cells
Test: Primary screening: definitive endoderm differentiation in the absence of activin A, cell number and SOX17 (Example 3)
Assay type: cell-based
Details: 2.5 μM compound, 20 ng/ml Wnt3a days 1-2, no activin A, four-day assay; for Cell Number: Average Total Cell Number: positive control 100 ng/ml activin A + Wnt3a
Description: Briefly, clusters of H1 human embryonic stem cells were grown on reduced growth factor […]™ (Invitrogen; Cat #1356231)-coated tissue culture plastic. Cells were passaged using collagenase (Invitrogen; Cat #17104-019) treatment and gentle scraping, washed to remove residual enzyme, and plated with even dispersal at a ratio of 1:1 (surface area) on reduced growth factor […]™-coated 96-well black plates (Packard ViewPlates; PerkinElmer; Cat #6005182) using volumes of 100 μl/well. Cells were allowed to attach as clusters and then recover log phase growth over a 1 to 3 day period, feeding daily with MEF conditioned medium supplemented with 8 ng/ml bFGF (R&D Systems; Cat #233-FB). Plates were maintained at 37° C., 5% CO2 in a humidified box throughout the duration of assay.
The compounds tested were made available as 5 mM stocks in 96-well plate format, solubilized in 100% DMSO (Sigma; Cat #D2650) and stored at −80° C. The library compounds were further diluted to an intermediate concentration of 0.2 mM in 50 mM HEPES (Invitrogen; Cat #15630-080), 20% DMSO and stored at 4° C. Test conditions were performed in triplicate, feeding on alternate days over a four-day assay period. Primary screening assays were initiated by aspirating culture medium from each well followed by three washes in PBS (Invitrogen; Cat #14190) to remove residual growth factors and serum. On the first day of assay, test volumes of 200 μl per well were added back containing DMEM:F12 base medium (Invitrogen; Cat #11330-032) supplemented with 0.5% FCS (HyClone; Cat #SH30070.03) and 20 ng/ml Wnt3a (R&D Systems; Cat #1324-WN) plus 2.5 μM test compound. On the third day of assay, test volumes of 200 μl per well were added back containing DMEM:F12 base medium supplemented with 2% FCS plus 2.5 μM test compound, without Wnt3a. Positive control samples contained the same base medium supplemented with FCS, substituting 100 ng/ml recombinant human activin A (PeproTech; Cat #120-14) for the test compound throughout the four-day assay along with Wnt3a (20 ng/ml) added only on days 1 and 2. Negative control samples contained DMEM:F12 base medium supplemented with FCS, adding Wnt3a on days 1 and 2 but omitting activin A.
At the conclusion of four-days of culture, assay plates were washed twice with PBS (Invitrogen; Cat #14190), fixed with 4% paraformaldehyde (Alexis Biochemical; Cat #ALX-350-011) at room temperature for 20 minutes, then washed three times with PBS and permeabilized with 0.5% Triton X-100 (Sigma; Cat #T8760-2) for 20 minutes at room temperature. Cells were washed again three times with PBS and blocked with 4% chicken serum (Invitrogen; Cat #16110082) in PBS for 30 minutes at room temperature. Primary antibody (goat anti-human SOX17; R&D Systems; Cat #AF1924) was diluted 1:100 in 4% chicken serum and added to each well for one hour at room temperature. Alexa Fluor 488 conjugated secondary antibody (chicken anti-goat IgG; Molecular Probes; Cat #AZ1467) was diluted 1:200 in PBS and added to each sample well after washing three times with PBS. To counter stain nuclei, 4 μg/ml Hoechst 33342 (Invitrogen; Cat #H3570) was added for ten minutes at room temperature. Plates were washed once with PBS and left in 100 μl/well PBS for imaging.
Imaging was performed using an IN Cell Analyzer 1000 (GE Healthcare) utilizing the 51008bs dichroic for cells stained with Hoechst 33342 and Alexa Fluor 488. Exposure times were optimized from positive control wells and from untreated negative control wells stained with secondary antibody alone. Images from 15 fields per well were acquired to compensate for any cell loss during the bioassay and subsequent staining procedures. Measurements for total cell number and total SOX17 intensity were obtained from each well using IN Cell Developer Toolbox 1.7 (GE Healthcare) software. Segmentation for the nuclei was determined based on gray-scale levels (baseline range 100-300) and nuclear size. […]

O=C1NCCc2cccc(c2)Nc2ncnc(n2)-c2cccc(c2)CCCN2CCC1CC2 [Compound 31, 1,11,13,15,23,31-Hexaazapentacyclo[23.2.2.1˜5,9˜0.1˜10,14˜0.1˜16,20˜]dotriaconta-5(32), 6,8,10(31), 11,13,16(30), 17,19-nonaen-24-one]
Cell Number: % of positive control: 32.19 % of positive control and 36.03 % of positive control

O=C1CCN2CCN(CC2)Cc2cc(ccc2Cl)Nc2ncnc(n2)-c2ccnc(c2)CCCN1 [Compound 27, 4-Chloro-1,8,10,12,17,22,26,32-octaazapentacyclo[24.2.2.1˜3,7˜1.˜9,13˜0.1˜14,18˜1]tritriaconta-3(33), 4,6,9(32), 10,12,14(31), 15,17-nonaen-23-one]
Cell Number: % of positive control: 43.20 % of positive control and 63.50 % of positive control | Cell Number: Average Total Cell Number: 4588 and 6288

CCN1CCCc2cccc(c2)-c2ncnc(n2)Nc2cccc(c2)CCNC(=O)C1 [Compound 29, 18-Ethyl-3,5,7,15,18,28-hexaazatetracyclo[20.3.1.1˜2,6˜0.1˜8,12˜]octacosa-1(26), 2(28), 3,5,8(27), 9,11,22,24-nonaen-16-one]
Cell Number: % of positive control: 54.41 % of positive control and 52.15 % of positive control | Cell Number: Average Total Cell Number: 5778 and 5164

CCN1CCCc2cccc(c2)-c2ncnc(n2)Nc2ccccc2CNC(=O)C1 [Compound 32, 15-Ethyl-13,14,15,16,18,19-hexahydro-1H-6,2-(azeno)-7,11-(metheno)-1,3,5,15,18-benzopentaazacyclohenicosin-17(12H)-one]
Cell Number: % of positive control: 45.32 % of positive control and 73.04 % of positive control

CN1CCC(=O)NCCCNc2ncccc2-c2ncnc(n2)Nc2cccc(c2)C1 [Compound 39, 9-Methyl-2,3,4,5,7,8,9,10-octahydro-16H-17,21-(azeno)-11,15-(metheno)pyrido[3,2-g][1,3,5,9,13,17]hexaazacyclotricosin-6(1H)-one]
Cell Number: Average Total Cell Number: 6114 and 3650 and 7054

O=C1NCCCc2cncc(c2)-c2ncnc(n2)Nc2cc(Cl)cc(c2)CN2CCCC1C2 (centres unmarked) [Compound 38, 5-Chloro-1,8,10,12,16,22,30-heptaazapentacyclo[22.2.2.1˜3,7˜0.1˜9,13˜0.1˜14,18˜]hentriaconta-3(31), 4,6,9(30), 10,12,14(29), 15,17-nonaen-23-one]
Cell Number: % of positive control: 32.52 % of positive control and 61.16 % of positive control

CN1CCCc2cccc(c2)-c2ncnc(n2)Nc2cccc(c2)CCNC(=O)C1 [Compound 28, 18-Methyl-3,5,7,15,18,28-hexaazatetracyclo[20.3.1.1˜2,6˜0.1˜8,12˜]octacosa-1(26), 2(28), 3,5,8(27), 9,11,22,24-nonaen-16-one]
Cell Number: % of positive control: 25.26 % of positive control and 41.62 % of positive control | Cell Number: Average Total Cell Number: 2682 and 4121

CN1CCCC(=O)NCCc2cccc(c2)Nc2ncnc(n2)-c2cccc(c2)CCC1 [Compound 33, 20-Methyl-3,5,7,15,20,30-hexaazatetracyclo[22.3.1.1˜2,6˜0.1˜8,12˜]triaconta-1(28), 2(30), 3,5,8(29), 9,11,24,26-nonaen-16-one]
Cell Number: % of positive control: 117.73 % of positive control and 69.23 % of positive control

O=C1NCCCc2cc(ccc2F)-c2ncnc(n2)Nc2cc(Cl)cc(c2)CN2CCCC1C2 (centres unmarked) [Compound 26, 10-Chloro-25-fluoro-3,5,7,14,20,31-hexaazapentacyclo[22.3.1.1˜2,6˜0.1˜8,12˜0.1˜14,18˜]hentriaconta-1(28), 2(31), 3,5,8(30), 9,11,24,26-nonaen-19-one]
Cell Number: % of positive control: 68.52 % of positive control and 54.88 % of positive control | Cell Number: Average Total Cell Number: 7276 and 5434

O=C1NCCCc2cncc(c2)-c2ncnc(n2)Nc2cc(Cl)cc(c2)CN2CCC[C@@H]12 [Compound 36, (18S)-10-Chloro-3,5,7,14,20,26,30-heptaazapentacyclo[22.3.1.1˜2,6˜0.1˜8,12˜0.0˜14,18˜]triaconta-1(28), 2(30), 3,5,8(29), 9,11,24,26-nonaen-19-one]
Cell Number: Average Total Cell Number: 5170 and 8356

— patent publication US9593305B2, “Differentiation of pluripotent stem cells” (Janssen Biotech, Inc., priority 2008, dated 2017)
